From patent US20170319722A1 come the findings set out here.

Sequences of proteins named here, by UniProt entry; tags and fusion partners are left off. Residues count along the entry.
UniProt P01732, residues 22-182: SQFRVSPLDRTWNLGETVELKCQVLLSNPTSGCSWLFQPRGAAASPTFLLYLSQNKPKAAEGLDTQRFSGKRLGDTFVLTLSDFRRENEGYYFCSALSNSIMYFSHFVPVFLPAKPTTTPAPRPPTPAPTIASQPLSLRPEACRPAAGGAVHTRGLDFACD

The target of assay [1] is His-tagged CD8α human recombinant protein (TP760215, Origene) (human) (UniProt P01732). Briefly: point ELISA, 50 nM His-tagged CD8α in human serum, immobilised ligand. On the technique in general: In an ELISA, binding on a coated surface is turned into a signal by an enzyme label.
Assay [2] shares this target. In words: on-bead target screen, 150 nM His-tagged CD8α, anti-His-AP, BCIP/NBT.

Results are given in words; binding and its absence hold for the method and conditions named. Some binding calls cover weakened binding; strength is not graded here.

In the case of AKYRG (N-terminal biotin-PEG3; triazole-cyclized (Cy) between flanking Pra and Az4) [biotin-PEG3-Cy(AKYRG)], the binding result in assay [1] is “binds”.

HGRGH (N-terminal biotin-PEG3; triazole-cyclized (Cy) between flanking Pra and Az4) [biotin-PEG3-Cy(HGRGH)]: the binding result in assay [1] was “binds”.

Regarding PWTHG (N-terminal biotin-PEG3; triazole-cyclized (Cy) between flanking Pra and Az4) [biotin-PEG3-Cy(PWTHG)], in assay [1], the binding entry was “binds”.

On to AKYRG (on TentaGel bead; N-terminal Pra; triazole-cyclized; C-terminal Met-TG) [H2N-Pra-Cy(AKYRG-click)-Met-TG, hit3 of Table 1 (on bead)], for which the binding result in assay [2] is “binds”.

With KRLGA (on TentaGel bead; N-terminal Pra; triazole-cyclized; C-terminal Met-TG) [H2N-Pra-Cy(KRLGA-click)-Met-TG, hit2 of Table 1 (on bead)], in assay [2], the binding entry is listed as “binds”.

Consider HGSYG (on TentaGel bead; N-terminal Pra; triazole-cyclized; C-terminal Met-TG) [H2N-Pra-Cy(HGSYG-click)-Met-TG, hit1 of Table 1 (on bead)], for which the binding result in assay [2] is on record as “binds”.
